Results taken from the supplement of paper PMC10849652.
Some of the results follow.

Amino acid sequences for entries named in this document (tags omitted). A change or cut given only in a name is not applied to a line headed by its entry.
UniProt Q9UJ41, whole entry, looked up: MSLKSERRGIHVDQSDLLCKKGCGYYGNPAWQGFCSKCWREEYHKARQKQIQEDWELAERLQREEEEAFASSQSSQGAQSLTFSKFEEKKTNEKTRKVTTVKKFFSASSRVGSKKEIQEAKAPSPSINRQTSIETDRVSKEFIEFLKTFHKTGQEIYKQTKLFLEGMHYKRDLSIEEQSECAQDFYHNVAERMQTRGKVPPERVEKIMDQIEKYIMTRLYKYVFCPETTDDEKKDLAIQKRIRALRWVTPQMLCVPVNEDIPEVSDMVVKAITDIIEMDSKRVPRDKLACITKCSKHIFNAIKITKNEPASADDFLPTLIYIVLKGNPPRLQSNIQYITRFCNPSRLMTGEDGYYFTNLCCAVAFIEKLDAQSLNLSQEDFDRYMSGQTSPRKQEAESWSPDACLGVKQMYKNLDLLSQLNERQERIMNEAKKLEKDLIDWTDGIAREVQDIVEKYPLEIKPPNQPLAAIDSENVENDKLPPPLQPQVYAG
UniProt Q9Y3L5: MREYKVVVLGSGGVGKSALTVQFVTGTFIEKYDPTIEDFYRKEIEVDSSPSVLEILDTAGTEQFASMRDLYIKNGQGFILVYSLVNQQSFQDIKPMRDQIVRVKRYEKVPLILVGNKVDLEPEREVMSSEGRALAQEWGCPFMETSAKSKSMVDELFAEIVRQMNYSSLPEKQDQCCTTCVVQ
UniProt Q16576, whole entry, looked up: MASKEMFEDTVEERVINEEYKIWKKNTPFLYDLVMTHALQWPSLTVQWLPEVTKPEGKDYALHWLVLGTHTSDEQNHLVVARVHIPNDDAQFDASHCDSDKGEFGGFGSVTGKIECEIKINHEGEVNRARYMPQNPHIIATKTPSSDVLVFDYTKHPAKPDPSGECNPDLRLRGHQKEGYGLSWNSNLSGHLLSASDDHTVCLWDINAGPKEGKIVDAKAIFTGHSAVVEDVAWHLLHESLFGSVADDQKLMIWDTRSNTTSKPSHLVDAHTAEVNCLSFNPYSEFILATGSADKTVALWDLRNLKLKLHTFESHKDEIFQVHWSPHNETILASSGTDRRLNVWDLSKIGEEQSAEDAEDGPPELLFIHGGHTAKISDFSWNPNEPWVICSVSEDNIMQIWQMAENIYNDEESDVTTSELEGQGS
UniProt Q9NW13: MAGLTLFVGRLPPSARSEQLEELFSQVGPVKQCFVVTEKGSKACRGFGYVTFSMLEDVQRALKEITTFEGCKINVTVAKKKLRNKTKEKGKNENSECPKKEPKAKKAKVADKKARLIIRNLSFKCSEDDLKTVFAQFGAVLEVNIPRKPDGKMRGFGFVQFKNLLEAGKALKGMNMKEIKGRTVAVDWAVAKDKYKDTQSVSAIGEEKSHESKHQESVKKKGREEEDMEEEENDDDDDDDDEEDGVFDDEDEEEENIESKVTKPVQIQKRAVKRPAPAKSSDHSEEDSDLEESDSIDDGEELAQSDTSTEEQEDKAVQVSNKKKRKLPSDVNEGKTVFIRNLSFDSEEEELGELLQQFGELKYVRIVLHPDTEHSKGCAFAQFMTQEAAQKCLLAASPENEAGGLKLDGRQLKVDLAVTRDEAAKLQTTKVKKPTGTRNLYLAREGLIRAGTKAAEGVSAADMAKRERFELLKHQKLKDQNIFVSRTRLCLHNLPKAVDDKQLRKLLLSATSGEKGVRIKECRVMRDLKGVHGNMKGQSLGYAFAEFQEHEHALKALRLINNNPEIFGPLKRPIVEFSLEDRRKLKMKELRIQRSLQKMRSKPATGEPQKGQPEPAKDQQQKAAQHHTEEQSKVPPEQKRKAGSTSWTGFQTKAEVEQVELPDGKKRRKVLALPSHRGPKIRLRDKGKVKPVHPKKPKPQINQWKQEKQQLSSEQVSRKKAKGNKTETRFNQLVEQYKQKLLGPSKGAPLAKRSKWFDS
UniProt P61026: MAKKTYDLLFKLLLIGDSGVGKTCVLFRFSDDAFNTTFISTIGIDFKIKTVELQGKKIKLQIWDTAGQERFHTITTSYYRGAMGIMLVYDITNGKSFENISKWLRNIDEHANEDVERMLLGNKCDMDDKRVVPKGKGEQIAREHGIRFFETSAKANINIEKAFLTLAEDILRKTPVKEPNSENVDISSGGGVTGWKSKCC
UniProt Q53S08: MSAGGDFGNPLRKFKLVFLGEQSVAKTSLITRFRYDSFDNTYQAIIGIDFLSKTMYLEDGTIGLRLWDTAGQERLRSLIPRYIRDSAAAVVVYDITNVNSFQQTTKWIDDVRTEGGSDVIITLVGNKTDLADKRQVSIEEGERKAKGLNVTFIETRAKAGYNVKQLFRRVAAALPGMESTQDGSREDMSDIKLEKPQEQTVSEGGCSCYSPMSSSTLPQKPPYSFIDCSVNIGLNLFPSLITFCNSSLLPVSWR
UniProt Q15771: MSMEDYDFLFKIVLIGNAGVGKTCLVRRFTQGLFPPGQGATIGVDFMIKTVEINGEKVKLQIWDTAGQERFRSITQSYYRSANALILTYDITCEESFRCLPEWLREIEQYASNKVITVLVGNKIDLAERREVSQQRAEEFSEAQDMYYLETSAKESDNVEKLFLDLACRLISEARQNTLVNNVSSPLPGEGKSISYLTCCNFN
UniProt O60671: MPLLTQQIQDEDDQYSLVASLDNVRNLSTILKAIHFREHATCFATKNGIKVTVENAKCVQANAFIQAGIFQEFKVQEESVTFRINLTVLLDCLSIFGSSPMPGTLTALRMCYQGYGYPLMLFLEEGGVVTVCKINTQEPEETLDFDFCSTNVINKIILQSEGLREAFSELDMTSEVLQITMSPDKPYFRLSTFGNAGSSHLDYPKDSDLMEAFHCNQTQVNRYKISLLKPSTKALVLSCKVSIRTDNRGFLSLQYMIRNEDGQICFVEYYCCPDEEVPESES
UniProt P11234: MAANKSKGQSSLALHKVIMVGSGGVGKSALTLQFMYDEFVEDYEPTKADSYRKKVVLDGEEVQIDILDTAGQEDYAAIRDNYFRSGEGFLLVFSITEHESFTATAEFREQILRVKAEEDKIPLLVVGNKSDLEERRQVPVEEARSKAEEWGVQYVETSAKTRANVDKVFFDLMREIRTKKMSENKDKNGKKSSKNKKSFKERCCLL
UniProt P54136: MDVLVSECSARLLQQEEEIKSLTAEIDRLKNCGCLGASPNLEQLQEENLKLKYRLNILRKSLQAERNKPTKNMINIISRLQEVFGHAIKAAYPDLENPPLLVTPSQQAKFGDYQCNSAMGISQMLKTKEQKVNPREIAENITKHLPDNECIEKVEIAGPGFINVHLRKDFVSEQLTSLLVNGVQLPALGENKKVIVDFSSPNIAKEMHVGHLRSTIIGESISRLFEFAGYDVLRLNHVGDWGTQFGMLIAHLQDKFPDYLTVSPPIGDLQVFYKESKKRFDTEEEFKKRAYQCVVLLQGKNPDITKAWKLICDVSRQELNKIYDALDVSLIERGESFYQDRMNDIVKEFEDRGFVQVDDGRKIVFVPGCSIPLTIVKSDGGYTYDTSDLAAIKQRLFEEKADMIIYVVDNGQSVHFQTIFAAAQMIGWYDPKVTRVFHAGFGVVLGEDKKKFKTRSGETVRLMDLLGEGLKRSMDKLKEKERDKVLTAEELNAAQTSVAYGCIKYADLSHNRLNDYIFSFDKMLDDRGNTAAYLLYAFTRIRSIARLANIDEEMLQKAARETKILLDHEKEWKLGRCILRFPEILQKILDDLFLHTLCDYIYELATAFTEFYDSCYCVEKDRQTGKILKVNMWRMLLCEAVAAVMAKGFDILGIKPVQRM
UniProt Q96EV2: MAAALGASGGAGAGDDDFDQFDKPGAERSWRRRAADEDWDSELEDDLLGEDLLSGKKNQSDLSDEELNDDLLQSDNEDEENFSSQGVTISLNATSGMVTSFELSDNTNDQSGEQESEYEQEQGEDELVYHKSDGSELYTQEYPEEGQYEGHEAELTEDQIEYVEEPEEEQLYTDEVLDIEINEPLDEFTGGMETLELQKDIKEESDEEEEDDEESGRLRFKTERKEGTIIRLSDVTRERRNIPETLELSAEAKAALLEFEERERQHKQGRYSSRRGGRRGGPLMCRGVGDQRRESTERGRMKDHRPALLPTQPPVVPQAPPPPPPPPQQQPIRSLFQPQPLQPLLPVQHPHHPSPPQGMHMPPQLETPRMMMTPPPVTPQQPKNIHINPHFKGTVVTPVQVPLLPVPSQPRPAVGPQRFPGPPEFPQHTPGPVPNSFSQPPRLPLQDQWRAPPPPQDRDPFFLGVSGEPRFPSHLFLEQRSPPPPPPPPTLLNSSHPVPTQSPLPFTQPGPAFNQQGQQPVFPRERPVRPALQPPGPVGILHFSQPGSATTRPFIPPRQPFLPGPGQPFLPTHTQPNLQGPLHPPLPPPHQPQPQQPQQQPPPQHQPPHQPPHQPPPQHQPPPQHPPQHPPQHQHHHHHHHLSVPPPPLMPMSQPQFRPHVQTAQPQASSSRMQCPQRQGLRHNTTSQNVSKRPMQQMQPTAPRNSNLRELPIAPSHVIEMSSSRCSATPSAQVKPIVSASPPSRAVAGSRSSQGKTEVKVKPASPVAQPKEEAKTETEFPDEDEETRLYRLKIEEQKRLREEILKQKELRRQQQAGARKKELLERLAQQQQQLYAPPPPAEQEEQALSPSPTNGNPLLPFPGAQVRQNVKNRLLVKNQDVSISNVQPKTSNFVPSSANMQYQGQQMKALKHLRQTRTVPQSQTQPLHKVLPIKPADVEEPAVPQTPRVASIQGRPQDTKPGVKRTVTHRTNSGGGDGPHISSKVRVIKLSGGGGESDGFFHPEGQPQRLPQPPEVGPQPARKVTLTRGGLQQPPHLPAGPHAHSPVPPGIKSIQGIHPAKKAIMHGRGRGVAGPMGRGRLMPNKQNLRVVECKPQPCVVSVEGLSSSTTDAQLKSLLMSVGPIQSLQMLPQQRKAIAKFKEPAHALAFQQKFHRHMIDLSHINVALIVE
UniProt P47224: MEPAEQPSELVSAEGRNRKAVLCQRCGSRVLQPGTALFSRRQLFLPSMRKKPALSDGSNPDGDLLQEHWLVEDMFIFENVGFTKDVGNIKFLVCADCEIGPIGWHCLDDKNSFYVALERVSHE
UniProt P46060: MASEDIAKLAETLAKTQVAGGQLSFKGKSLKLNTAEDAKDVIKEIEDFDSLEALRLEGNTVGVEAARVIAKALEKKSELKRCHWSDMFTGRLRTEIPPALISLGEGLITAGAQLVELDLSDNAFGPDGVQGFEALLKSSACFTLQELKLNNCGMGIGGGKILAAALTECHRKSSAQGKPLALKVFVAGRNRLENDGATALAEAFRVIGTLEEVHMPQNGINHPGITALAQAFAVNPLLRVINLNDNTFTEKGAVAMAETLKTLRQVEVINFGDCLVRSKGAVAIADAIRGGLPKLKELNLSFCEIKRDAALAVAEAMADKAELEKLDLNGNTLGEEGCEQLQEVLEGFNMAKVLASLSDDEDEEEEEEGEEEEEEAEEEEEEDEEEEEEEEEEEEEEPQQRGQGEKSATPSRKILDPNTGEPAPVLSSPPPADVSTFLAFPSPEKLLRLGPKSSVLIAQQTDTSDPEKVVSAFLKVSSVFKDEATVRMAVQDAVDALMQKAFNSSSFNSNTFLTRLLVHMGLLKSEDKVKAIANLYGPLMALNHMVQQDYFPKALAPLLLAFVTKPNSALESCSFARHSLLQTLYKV
UniProt P52306: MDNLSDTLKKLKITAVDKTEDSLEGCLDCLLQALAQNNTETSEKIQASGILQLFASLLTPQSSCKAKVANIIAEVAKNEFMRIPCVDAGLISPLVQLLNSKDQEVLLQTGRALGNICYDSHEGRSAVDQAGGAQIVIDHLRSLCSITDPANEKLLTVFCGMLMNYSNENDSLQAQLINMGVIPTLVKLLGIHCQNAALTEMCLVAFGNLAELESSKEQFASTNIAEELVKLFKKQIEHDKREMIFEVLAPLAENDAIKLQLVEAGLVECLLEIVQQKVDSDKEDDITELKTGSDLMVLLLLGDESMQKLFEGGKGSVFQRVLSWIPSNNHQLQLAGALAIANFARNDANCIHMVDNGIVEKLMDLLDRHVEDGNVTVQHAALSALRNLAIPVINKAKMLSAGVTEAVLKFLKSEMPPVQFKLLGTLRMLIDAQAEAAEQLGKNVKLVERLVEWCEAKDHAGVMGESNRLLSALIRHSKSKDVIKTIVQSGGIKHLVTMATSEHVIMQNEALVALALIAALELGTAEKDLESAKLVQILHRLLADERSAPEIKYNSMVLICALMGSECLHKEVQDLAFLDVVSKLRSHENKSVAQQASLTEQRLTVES
UniProt P61225: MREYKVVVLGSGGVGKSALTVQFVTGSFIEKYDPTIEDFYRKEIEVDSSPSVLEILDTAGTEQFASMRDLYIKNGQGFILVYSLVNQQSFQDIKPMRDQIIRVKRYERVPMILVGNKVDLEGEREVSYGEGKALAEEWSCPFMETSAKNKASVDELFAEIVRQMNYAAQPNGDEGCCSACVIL
UniProt P51148: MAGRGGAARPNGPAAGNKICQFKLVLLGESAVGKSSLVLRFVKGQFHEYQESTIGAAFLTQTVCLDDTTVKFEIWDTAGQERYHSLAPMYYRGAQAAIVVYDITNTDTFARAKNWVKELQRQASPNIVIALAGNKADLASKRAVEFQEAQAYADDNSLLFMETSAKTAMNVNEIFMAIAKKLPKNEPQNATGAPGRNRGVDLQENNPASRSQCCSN

Compound: C1=CC(=CC=C1C2=NC3=C(N2)C=C(C=C3)C(=O)N)OC4=CC=C(C=C4)Cl
Assay: log2 fold change, soluble protein after heating vs DMSO (PISA); higher = thermal stabilisation; K562 cells, 10 uM, 30 min; active = over 0.2 and 3.5 SD of the protein, either way, in both replicates (recomputed)
Outline: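 K562 cells at 2×10^6 cells/mL were treated for 30 min with 10 μM compound, and aliquots were heated for 3 min over 48°C-58°C before pooling. Extraction used PBS with 0.5% NP-40 at 4°C, and soluble protein was the supernatant after 21,000xg for 90 min, measured by TMTpro 16plex LC-MS/MS with channel sums equalised. Thermal stability values, relative to control samples and from duplicates, are log2 fold changes.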

log2 fold change, inactive:
RABGEF1 isoform 3 (UniProt Q9UJ41) 0.01
RAP2C (UniProt Q9Y3L5) 0.01
RBBP7 (UniProt Q16576) -0.003
RBM28 (UniProt Q9NW13) 0.142
RAB10 (UniProt P61026) -0.007
RAB6D (UniProt Q53S08) 0.001
RAB3IL1 (UniProt Q8TBN0) 0.005
RAB11FIP1 (UniProt Q6WKZ4) -0.039
RAB30 (UniProt Q15771) -0.028
RAB8B (UniProt Q92930) 0.028
RAD1 (UniProt O60671) 0.032
RALB isoform 2 (UniProt P11234) -0.052
RARS (UniProt P54136) -0.007
RAB4A (UniProt P20338) -0.019
RBM22 (UniProt Q9NW64) -0.009
RBM33 (UniProt Q96EV2) -0.011
RABIF (UniProt P47224) -0.034
RANGAP1 (UniProt P46060) -0.01
RAP1GDS1 isoform 5 (UniProt P52306) -0.013
RAP2B (UniProt P61225) -0.025
RAB3GAP1 (UniProt Q15042) -0.055
RAC2 (UniProt P15153) -0.005
RAB5C isoform 2 (UniProt P51148) 0.015

2 consecutive records from above, quoted:
log2 fold change, inactive:
RAP1GDS1 isoform 5 (UniProt P52306) -0.013
RAP2B (UniProt P61225) -0.025
